This passage reports binding results from article PMC10060384.

The chains behind the UniProt entries cited, without tags or fusion partners. Residues count along the entry.
UniProt Q9QUK6, residues 26-835: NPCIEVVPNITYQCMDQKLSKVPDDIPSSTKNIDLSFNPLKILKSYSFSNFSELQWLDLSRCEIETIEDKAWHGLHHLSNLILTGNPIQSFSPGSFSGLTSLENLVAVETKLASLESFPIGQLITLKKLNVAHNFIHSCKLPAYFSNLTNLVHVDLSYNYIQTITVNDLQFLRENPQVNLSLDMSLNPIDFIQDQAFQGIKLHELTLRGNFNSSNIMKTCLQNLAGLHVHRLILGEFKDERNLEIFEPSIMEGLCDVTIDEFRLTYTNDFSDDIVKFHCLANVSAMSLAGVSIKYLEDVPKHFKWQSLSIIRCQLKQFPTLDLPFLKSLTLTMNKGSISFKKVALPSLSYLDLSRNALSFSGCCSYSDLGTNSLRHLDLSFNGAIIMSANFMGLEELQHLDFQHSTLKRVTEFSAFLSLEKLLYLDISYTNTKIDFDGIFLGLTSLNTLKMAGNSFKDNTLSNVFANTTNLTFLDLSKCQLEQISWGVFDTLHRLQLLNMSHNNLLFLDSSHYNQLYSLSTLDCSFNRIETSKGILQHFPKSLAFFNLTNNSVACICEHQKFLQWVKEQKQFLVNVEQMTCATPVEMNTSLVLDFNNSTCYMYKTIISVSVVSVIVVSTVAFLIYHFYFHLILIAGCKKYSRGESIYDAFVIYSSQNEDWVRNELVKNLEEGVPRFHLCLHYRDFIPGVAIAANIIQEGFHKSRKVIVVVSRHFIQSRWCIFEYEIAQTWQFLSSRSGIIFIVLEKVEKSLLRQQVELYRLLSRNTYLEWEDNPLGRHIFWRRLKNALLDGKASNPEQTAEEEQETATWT

The assay concerns the target Toll-like receptor 4 (mouse (endogenous in BMDM)) (UniProt Q9QUK6). As to the kind of experiment: co-IP; only the binder purified.

No constants are given. Whether binding was seen depends on the method and setting. Binding seen in cells or lysates may run through a third protein. Some results given as binding are weak or reduced against the parent protein; the word gives no strength.

In the case of “recombinant influenza virus matrix 1 (M1) protein (from UniProt P03485 1-252)”, the binding entry is listed as “binds”.
